Article PMC9500237
Results are given in words; binding and its absence hold for the method and conditions named. In cells and extracts the contact can be indirect. Some results given as binding are weak or reduced against the parent protein; the word gives no strength. For some assays here: Tags and fused reporters may be left off the sequences shown. One block for each binder: values may come before it.

By UniProt entry, the sequences of proteins in these tests, tags left out.
UniProt Q8N122: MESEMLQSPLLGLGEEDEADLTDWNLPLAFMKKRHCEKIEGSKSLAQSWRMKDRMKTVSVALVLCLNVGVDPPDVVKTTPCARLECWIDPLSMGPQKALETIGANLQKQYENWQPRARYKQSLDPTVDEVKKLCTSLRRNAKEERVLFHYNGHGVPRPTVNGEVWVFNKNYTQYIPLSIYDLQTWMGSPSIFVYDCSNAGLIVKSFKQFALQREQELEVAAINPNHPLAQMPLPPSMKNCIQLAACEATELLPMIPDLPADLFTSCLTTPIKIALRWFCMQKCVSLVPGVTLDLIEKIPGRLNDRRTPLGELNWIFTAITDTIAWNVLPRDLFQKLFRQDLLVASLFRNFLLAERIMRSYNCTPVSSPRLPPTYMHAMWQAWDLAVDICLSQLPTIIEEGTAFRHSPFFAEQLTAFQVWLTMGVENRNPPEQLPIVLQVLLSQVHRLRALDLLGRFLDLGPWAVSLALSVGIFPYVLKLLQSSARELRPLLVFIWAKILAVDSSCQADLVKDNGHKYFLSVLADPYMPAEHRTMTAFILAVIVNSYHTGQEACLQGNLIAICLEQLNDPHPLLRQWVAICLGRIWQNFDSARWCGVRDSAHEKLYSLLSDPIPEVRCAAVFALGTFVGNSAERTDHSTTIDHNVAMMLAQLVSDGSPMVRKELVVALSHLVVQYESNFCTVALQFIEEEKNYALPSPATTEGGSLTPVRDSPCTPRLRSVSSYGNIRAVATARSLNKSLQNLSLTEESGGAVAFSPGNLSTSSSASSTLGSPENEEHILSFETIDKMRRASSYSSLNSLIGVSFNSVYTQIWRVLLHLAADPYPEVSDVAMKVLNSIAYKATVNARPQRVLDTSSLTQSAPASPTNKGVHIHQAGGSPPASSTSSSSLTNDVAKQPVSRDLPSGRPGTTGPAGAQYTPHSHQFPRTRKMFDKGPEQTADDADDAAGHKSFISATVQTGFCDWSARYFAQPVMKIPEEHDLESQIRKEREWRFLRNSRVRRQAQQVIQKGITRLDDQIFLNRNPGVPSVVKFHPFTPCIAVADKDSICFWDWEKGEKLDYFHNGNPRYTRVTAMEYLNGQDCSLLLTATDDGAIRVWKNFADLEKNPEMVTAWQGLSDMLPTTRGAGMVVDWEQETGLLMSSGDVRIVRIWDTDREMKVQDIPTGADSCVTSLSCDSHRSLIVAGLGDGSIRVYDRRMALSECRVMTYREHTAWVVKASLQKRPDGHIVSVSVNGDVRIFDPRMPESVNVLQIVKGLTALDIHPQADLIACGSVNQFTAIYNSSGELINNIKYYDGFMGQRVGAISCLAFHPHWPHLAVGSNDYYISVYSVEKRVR

Tests used:
HA-Raptor = HA-Raptor (UniProt Q8N122); assay: co-IP; Flag-Bcl-3 and HA-Raptor co-transfected into HEK293T cells, lysed 48 h later in IP lysis buffer; anti-Flag or anti-HA agarose beads, 4°C overnight; beads washed four times; Western blot
[1] = biological target: endogenous Raptor (human (endogenous in 293T)) (UniProt Q8N122); assay: co-IP; endogenous proteins in 293T lysate; anti-Bcl-3 or anti-Raptor antibody (5 µg), mouse purified IgG as negative control; Western blot

binding (HA-Raptor): binds
B1: Flag-Bcl-3 (protein, UniProt P20749 1-454)
chain: MPRCPAGAMDEGPVDLRTRPKAAGLPGAALPLRKRPLRAPSPEPAAPRGAAGLVVPLDPLRGGCDLPAVPGPPHGLARPEALYYPGALLPLYPTRAMGSPFPLVNLPTPLYPMMCPMEHPLSADIAMATRADEDGDTPLHIAVVQGNLPAVHRLVNLFQQGGRELDIYNNLRQTPLHLAVITTLPSVVRLLVTAGASPMALDRHGQTAAHLACEHRSPTCLRALLDSAAPGTLDLEARNYDGLTALHVAVNTECQETVQLLLERGADIDAVDIKSGRSPLIHAVENNSLSMVQLLLQHGANVNAQMYSGSSALHSASGRGLLPLVRTLVRSGADSSLKNCHNDTPLMVARSRRVIDILRGKATRPASTSQPDPSPDRSANTSPESSSRLSSNGLLSASPSSSPSQSPPRDPPGFPMAPPNFFLPSPSPPAFLPFAGVLRGPGRPVPPSPAPGGS

binding [1]: binds
B2: endogenous Bcl-3 (protein, UniProt P20749 1-454)
chain: B1 chain
